Test results as given in PMC10517019.
No constants are given. Whether binding was seen depends on the method and setting. Binding seen in cells or lysates may run through a third protein. Some entries that bind do so weakly or less than the wild type. Sequences can lack the tags named with a protein.

Amino acid sequences for entries named in this document (tags omitted).
UniProt P26038: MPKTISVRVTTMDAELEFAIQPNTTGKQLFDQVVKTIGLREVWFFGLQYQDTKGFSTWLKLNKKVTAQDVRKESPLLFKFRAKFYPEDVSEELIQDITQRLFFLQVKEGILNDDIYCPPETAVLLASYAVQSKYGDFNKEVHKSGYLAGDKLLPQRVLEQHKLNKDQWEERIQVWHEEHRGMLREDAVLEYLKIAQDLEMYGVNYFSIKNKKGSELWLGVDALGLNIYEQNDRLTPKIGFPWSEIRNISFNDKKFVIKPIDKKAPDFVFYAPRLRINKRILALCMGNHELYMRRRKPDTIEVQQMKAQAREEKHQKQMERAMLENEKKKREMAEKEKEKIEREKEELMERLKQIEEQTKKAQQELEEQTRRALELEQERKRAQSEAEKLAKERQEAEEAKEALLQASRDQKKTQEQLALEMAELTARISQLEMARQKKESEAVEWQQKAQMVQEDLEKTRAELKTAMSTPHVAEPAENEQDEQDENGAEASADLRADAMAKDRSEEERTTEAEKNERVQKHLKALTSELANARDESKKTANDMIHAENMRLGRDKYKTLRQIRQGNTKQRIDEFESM

How the values were obtained:
His-Moesin (wild type) [1] = biological target: His-Moesin (wild type) (UniProt P26038); experiment: co-IP; MCF7 (and MDA-MB-231) cells transfected 36 h, MG132 6 h; whole-cell lysates immunoprecipitated with anti-His antibody, immunoblot
His-Moesin (wild type) [2] = biological target: His-Moesin (wild type) (UniProt P26038); experiment: pull-down; MCF7 cells transfected 36 h, 5 µM MG132 6 h; His-Moesin pulled down with Ni-NTA beads from whole-cell extracts, immunoblot (Fig. 5I, Fig. 6F)

B1: FLAG-FBXW2, full length (protein, UniProt Q9UKT8 1-454)
chain: MERKDFETWLDNISVTFLSLTDLQKNETLDHLISLSGAVQLRHLSNNLETLLKRDFLKLLPLELSFYLLKWLDPQTLLTCCLVSKQWNKVISACTEVWQTACKNLGWQIDDSVQDALHWKKVYLKAILRMKQLEDHEAFETSSLIGHSARVYALYYKDGLLCTGSDDLSAKLWDVSTGQCVYGIQTHTCAAVKFDEQKLVTGSFDNTVACWEWSSGARTQHFRGHTGAVFSVDYNDELDILVSGSADFTVKVWALSAGTCLNTLTGHTEWVTKVVLQKCKVKSLLHSPGDYILLSADKYEIKIWPIGREINCKCLKTLSVSEDRSICLQPRLHFDGKYIVCSSALGLYQWDFASYDILRVIKTPEIANLALLGFGDIFALLFDNRYLYIMDLRTESLISRWPLPEYRKSKRGSSFLAGEASWLNGLDGHNDTGLVFATSMPDHSIHLVLWKEHG
binding (His-Moesin (wild type) [1]): binds
binding (His-Moesin (wild type) [2]): binds
